In publication doi:10.1101/2022.12.12.520165:
These are yes or no findings as the source states them, for the method shown. For part of these data: Binding seen in cells or lysates may run through a third protein. Some results given as binding are weak or reduced against the parent protein; the word gives no strength.

Chains of the proteins cited; added tags and fusions are not shown. Lines headed by an entry give the natural chain unless they say otherwise; changes in a name come on top. Residues count along the entry.
UniProt Q7Z5G4, whole entry: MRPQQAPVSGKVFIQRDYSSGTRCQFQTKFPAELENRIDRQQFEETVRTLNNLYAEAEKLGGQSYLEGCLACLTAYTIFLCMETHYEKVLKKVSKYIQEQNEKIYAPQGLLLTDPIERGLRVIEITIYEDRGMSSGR
UniProt Q9Y397, 1-305: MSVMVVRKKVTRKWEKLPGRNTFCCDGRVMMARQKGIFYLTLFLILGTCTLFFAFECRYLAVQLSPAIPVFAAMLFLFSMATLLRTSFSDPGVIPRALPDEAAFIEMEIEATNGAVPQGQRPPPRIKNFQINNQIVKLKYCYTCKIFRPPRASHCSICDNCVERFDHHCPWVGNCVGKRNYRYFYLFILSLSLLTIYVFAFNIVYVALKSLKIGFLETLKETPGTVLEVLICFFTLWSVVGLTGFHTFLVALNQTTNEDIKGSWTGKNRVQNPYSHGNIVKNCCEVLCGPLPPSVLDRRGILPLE
UniProt Q9Y397, whole entry, looked up, stated change not applied: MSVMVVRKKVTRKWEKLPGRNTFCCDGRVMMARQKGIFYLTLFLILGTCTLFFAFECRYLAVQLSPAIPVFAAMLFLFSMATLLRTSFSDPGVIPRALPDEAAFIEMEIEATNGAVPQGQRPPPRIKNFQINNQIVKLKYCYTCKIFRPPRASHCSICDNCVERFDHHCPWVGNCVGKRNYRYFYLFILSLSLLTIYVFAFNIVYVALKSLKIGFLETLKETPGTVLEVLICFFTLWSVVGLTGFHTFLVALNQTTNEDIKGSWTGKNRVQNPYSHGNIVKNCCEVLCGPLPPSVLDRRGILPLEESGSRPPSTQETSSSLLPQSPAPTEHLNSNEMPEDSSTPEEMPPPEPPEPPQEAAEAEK
UniProt Q8IZN3, whole entry: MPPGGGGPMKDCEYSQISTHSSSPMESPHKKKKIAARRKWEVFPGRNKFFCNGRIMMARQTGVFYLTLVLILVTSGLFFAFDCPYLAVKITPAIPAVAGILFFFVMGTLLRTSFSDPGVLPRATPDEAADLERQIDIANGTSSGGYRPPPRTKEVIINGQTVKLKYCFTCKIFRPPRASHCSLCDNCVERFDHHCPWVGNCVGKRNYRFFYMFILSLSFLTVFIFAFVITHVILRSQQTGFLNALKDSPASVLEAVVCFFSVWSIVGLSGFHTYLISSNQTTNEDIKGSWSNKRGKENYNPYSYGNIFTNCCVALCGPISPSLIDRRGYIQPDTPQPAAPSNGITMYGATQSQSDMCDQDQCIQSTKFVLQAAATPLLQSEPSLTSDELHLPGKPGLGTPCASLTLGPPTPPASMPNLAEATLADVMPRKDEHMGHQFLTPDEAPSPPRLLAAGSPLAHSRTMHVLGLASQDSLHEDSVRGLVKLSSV

How the values were obtained:
GCP16 (human) = GCP16 (human) (UniProt Q7Z5G4); assay: co-purification
[1] = biological target: GCP16 with a N-terminal His tag (human) (UniProt Q7Z5G4); assay: pull-down + SEC

binding (GCP16 (human)) | binding [1] | Substance
binds |  | truncated form (residues 1-305) of DHHC9 (from UniProt Q9Y397 1-305) (domain or fragment)
 | binds | DHHC14 with a C-terminal FLAG tag (from UniProt Q8IZN3 1-488) (enzyme)
binds |  | C169A catalytic dead mutant of DHHC9 (from UniProt Q9Y397 1-364) (enzyme)
